Data on four molecules can be found in PMC4859692.

Chains of the proteins cited; added tags and fusions are not shown. Lines headed by an entry give the natural chain unless they say otherwise; changes in a name come on top.
UniProt P54647: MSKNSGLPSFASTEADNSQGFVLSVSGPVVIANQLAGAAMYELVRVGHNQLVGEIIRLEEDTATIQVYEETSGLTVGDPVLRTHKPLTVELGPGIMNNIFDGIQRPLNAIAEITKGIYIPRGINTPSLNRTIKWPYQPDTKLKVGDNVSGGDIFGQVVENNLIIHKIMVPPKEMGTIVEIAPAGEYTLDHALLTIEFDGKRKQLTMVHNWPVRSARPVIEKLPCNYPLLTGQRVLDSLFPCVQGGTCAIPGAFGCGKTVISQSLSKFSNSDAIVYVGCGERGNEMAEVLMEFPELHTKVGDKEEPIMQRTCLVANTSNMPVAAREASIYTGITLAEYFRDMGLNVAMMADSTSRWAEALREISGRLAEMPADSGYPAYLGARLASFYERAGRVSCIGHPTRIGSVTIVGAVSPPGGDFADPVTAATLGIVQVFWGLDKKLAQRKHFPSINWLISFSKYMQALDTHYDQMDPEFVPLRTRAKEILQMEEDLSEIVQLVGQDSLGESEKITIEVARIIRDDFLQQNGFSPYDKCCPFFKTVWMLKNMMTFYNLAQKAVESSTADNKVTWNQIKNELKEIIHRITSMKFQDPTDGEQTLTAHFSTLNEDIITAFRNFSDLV
UniProt Q54IX5: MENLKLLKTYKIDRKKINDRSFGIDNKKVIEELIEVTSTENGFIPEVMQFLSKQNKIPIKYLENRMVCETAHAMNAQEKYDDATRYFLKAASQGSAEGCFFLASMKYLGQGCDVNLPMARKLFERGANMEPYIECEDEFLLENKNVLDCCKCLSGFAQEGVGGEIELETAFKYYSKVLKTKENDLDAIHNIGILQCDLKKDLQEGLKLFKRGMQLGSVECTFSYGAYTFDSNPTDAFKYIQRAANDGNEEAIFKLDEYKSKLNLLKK

The labels stand for the following.
T1: Ino1-RFP (Dictyostelium inositol-3-phosphate synthase with a C-terminal RFP tag) (Dictyostelium discoideum) (UniProt Q54N49)
T1 sequence: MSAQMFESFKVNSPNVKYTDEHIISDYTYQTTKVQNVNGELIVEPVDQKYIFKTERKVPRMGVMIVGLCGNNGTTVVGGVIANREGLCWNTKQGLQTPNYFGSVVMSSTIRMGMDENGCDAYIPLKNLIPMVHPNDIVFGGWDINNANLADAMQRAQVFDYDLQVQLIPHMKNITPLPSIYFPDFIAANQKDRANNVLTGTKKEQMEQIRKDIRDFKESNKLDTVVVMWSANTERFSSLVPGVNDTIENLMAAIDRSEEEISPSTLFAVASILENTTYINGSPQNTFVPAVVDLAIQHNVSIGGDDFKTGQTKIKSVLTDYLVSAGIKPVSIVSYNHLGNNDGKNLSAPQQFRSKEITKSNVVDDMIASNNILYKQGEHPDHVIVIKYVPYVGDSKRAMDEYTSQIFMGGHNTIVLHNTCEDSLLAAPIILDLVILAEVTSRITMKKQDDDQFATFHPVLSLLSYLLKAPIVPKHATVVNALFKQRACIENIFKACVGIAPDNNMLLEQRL

B1: GpmA (endogenous) (enzyme, UniProt Q54NE6 1-249)
chain: MVYKLVLIRHGESTWNKENKFTGWTDVDLSEKGVQEAHEAGKRLLKAGFTFDIAYTSVLKRAIRTLWILLEELNLYWIPVSRQWRLNERMYGSLQGLNKSETAAKYGEDQVLIWRRSYDIPPPALEESDERYPGNDPRYAKLDKSDLPKTECLKDTVERFLPLWNDTIAPTIKSGQKVLIAAHGNSIRALVKYLDNIADDKIVSMDIPTGIPLVYELDENLKPIKHYYLADESELNAAIQAVANQGKAK
B2: PefB (endogenous) (protein, UniProt Q95YL4 1-205)
chain: MYGYGYTPAVVAPTVMSFSFVPPQAFQQCWFYSLYTQIQQAQLYEMQSWFMRVDANRSGTISSGELQYLNIGGTPLGIETATKLIKVFDHNKNGQIDFYEYAALHQFINNLYRCFVANDRNFSGTIDANEIYNALITSGFQLPFPTVNYLFLKLSPSGYGLLFTQFLNLCATVALTRSLFEWNDPMRTGVVHLNLAQLYDIIALV

Results are given in words; binding and its absence hold for the method and conditions named. Binding seen in cells or lysates may run through a third protein. A yes stands for co-enrichment or nearness to the bait. Other partners may have been found. Sequences can lack the tags named with a protein.

This experiment addresses T1, Ino1-RFP (Dictyostelium inositol-3-phosphate synthase with a C-terminal RFP tag) (Dictyostelium discoideum). As to the kind of experiment: affinity purification with mass spectrometry; Ino1-RFP from ino1- cell lysate held on RFP-Trap agarose beads (1 h, 4°C; lysis 0.5% NP-40, 40 mM Tris-HCl, 20 mM NaCl); SDS-PAGE, Coomassie bands specific to Ino1-RFP and absent in the RFP-only or AX2 control analysed by mass spectrometry; three independent experiments.
For “V-type proton ATPase catalytic subunit A (from UniProt P54647 1-618)”, the binding result is given as “binds”.
For “Q54IX5 (endogenous) (from UniProt Q54IX5)”, the binding entry is “binds”.
B1: the binding result is given as “binds”.
Take B2: the binding entry is reported as “binds”.
